PubChem BioAssay AID2685 (National Center for Advancing Translational Sciences (NCATS), 2010)
The list shows a part of the results. These are further read-outs of the screen, such as a control signal, another cell line or another target. No call is given for them. Most of these compounds were active or inconclusive in the main read-out, so they are no random draw. Potencies come from curve fits of mixed quality, noted in brackets.

Experiment: qHTS Assay for Lipid Storage Modulators in Drosophila S3 Cells;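 for cell number change: cells counted by Cell Tracker Red CMTPX staining in the red channel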
Details: BODIPY lipid droplet fluorescence, 18-24 h; for cell number change: measured here: cell count max response, cells fed with added oleic acid
Method in brief: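 Laser-scanning cytometry quantifies lipid droplet accumulation (500–530 nm total intensity; droplet/cell object ratio) in oleic acid-fed (400 uM added) Drosophila S3 cells treated with a concentration series. 20 uM Triacsin C defined 100% inhibition.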

[1] = measured here: cell number channel AC50, cells fed with added oleic acid
[2] = measured here: lipid fluorescence (Fed channel) AC50, cells fed with added oleic acid

Row | SMILES | cell number change [%] | AC50 [1] | AC50 [2]
1 | CN1/C(=C\C=O)C(C)(C)c2ccccc21 | 24.9 | 0.164 µM [rising, full curve, poor fit] | 0.13 µM [rising, full curve, poor fit]
2 | COc1ccc(NC(=O)Nc2cccc3ccccc23)cc1S(N)(=O)=O | 21.4 | 0.326 µM [rising, full curve, poor fit] | 
3 | COC(=O)C1CCN(C(=O)/C=C/c2ccc3c(c2)OCO3)CC1 | 16.8 |  | 
4 | Cc1ccc(S(=O)(=O)N2CCC(C)CC2)cc1C(=O)NCCN1CCOCC1 | -4.97 |  | 0.116 µM [falling, full curve, poor fit]
5 | Cc1ccc(CNC(=O)Cc2ccc(-c3ccccc3)cc2)cc1 | -15.4 |  | 20.6 µM [falling, single point]
6 | COc1ccc(NC(=O)c2ccccc2SC)c(OC)c1 | -39.2 |  | 
7 | N#CC(C(=O)C12CC3CC(CC(C3)C1)C2)c1nc2ccccc2[nH]1 (stereo not drawn) | 1.08 |  | 0.00517 µM [falling, full curve, poor fit]
8 | Cc1c(-c2ccc(Br)cc2)[n+](=O)c2c(n1[O-])CCCC2 | -14.8 |  | 0.00461 µM [rising, full curve, poor fit]
9 | CCn1nnnc1SCC(=O)Nc1sc(C)c(C)c1C#N | 13.2 | 0.517 µM [rising, partial curve] | 2.31 µM [rising, partial curve]
10 | Nc1cc(Cl)ccc1Oc1ccc2ccccc2c1 | -33.8 | 6.51 µM [rising, single point] | 
11 | Cc1cc(C(=O)NCC2CCCO2)n(-c2ccccc2)n1 (stereo not drawn) | -24.4 |  | 6.51 µM [falling, single point]
12 | Cc1ccc(Sc2ncccc2C(=O)NCc2cc([N+](=O)[O-])ccc2O)c(C)c1 | 61.1 | 32.6 µM [rising, single point] | 29.1 µM [rising, single point]
13 | CCN1C(=O)[C@H]2[C@@H](c3ccc(C)cc3)N3C(=O)N(c4cccc(Br)c4)C(=O)[C@@]3(Cc3ccccc3)[C@H]2C1=O | 24.8 |  | 2.06 µM [rising, single point]
14 | CC(C)CCOc1cccc(OCC(=O)Nc2ccncc2)c1 | -14.1 |  | 2.06 µM [falling, partial curve]
15 | CCC(=O)NC(C)c1nc2ccccc2n1C (stereo not drawn) | -205 | 29.1 µM [falling, partial curve] | 25.9 µM [falling, partial curve]
16 | O=C(C1=C(O)C(=O)N(CC2CCCO2)C1c1ccccc1F)c1ccco1 (stereo not drawn) | -17.1 | 0.0366 µM [falling, full curve, poor fit] | 
17 | O=C(COC(=O)/C=C/C(=O)N1CCN(c2ccccc2)CC1)NCc1ccc(F)cc1 | -3.53 | 6.51 µM [falling, single point] | 
18 | O=C(Nc1ccc(NC(=O)c2ccccc2F)cc1)c1cccs1 | -17.4 | 6.51 µM [falling, partial curve] | 0.92 µM [falling, full curve, poor fit]
19 | Nc1ccc(-c2ccc(N)c([N+](=O)[O-])c2)cc1[N+](=O)[O-] |  |  | 6.51 µM [rising, single point]
20 | COc1cc(C)nc(NC(=O)COc2ccc(Cl)cc2C)n1 |  | 0.146 µM [rising, full curve, poor fit] | 0.231 µM [rising, full curve, poor fit]
21 | Cc1ccc(OCCC(=O)OCC(=O)Nc2ccc(C)cc2Cl)cc1 | -36 | 23.1 µM [falling, partial curve, poor fit] | 4.11 µM [rising, single point]
22 | CCN(CC(=O)Nc1ccc(NC(C)=O)cc1)C(=O)c1ccccc1SCC(=O)N1CCCC1 | -21.9 |  | 11.6 µM [falling, partial curve]

Compounds from the list above with a thiophene ring, fused or not:
Row | SMILES | cell number change [%] | AC50 [1] | AC50 [2]
9 | CCn1nnnc1SCC(=O)Nc1sc(C)c(C)c1C#N | 13.2 | 0.517 µM [rising, partial curve] | 2.31 µM [rising, partial curve]
18 | O=C(Nc1ccc(NC(=O)c2ccccc2F)cc1)c1cccs1 | -17.4 | 6.51 µM [falling, partial curve] | 0.92 µM [falling, full curve, poor fit]

Later entries

Row | SMILES | cell number change [%] | AC50 [1] | AC50 [2]
23 | O=C(Cn1ncc2c([nH]c3ccccc32)c1=O)NCCc1ccccc1 | 41.2 | 25.9 µM [rising, single point] | 
24 | CCCCn1c(=O)c(CCC(=O)OCC(=O)NC(C)c2ccccc2)nc2ccccc21 (stereo not drawn) | 122 |  | 
25 | COC(=O)c1cc(NC(=O)Cc2coc3cc(OC)ccc23)cc(C(=O)OC)c1 | -29.1 |  | 32.6 µM [falling, single point]
26 | CN(C1CCCCC1)S(=O)(=O)c1ccc2c(c1)c(=O)c(C(=O)N1CCc3ccccc3C1)cn2C |  | 2.31 µM [rising, single point] | 
27 | CCOC(=O)Cc1csc(NC(=S)NC(=O)c2ccccc2Br)n1 | -21.1 |  | 
28 | Cc1cc(C)nc(SCc2cn3ccccc3n2)n1 | 30.6 | 29.1 µM [rising, single point] | 
29 | Cc1noc(C)c1COC(=O)CNC(=O)c1ccc(Cl)cc1 | 47.2 |  | 
30 | Cc1cc(NC(=O)CSCc2nc(-c3cccc(Cl)c3)oc2C)no1 | 15.6 |  | 7.31 µM [rising, partial curve]
31 | Cc1ccc(C(=O)Nc2ncccc2O)cc1S(=O)(=O)N1CCCCC1 | 125 | 29.1 µM [rising, single point] | 
32 | CCc1c(C)sc(NC(=S)Nc2cccnc2)c1C(=O)OC | -30 | 32.6 µM [falling, single point] | 29.1 µM [falling, single point]
33 | CS(=O)(=O)N(CC(=O)NCc1ccco1)c1cccc([N+](=O)[O-])c1 | -4.46 |  | 6.51 µM [falling, single point]
34 | CCC(=O)Nc1cccc(NC(=S)NC(=O)c2ccc(Cl)cc2Cl)c1 | -1.71 |  | 1.16 µM [falling, single point]
35 | Brc1cccc(CNCC2CCCO2)c1 (stereo not drawn) | -2.05 |  | 
36 | CCOc1ccc(NC(=O)CN(C)CC(=O)NC(C)c2ccccc2)cc1OCC (stereo not drawn) | -44.2 | 2.91 µM [rising, single point] | 
37 | FC(F)(F)c1cc(-c2ccc(Cl)cc2)nc2ncnn12 | 112 | 6.51 µM [rising, partial curve, poor fit] | 20.6 µM [rising, partial curve]
38 | Cc1cc(S(=O)(=O)NCc2ccccc2)ccc1OCC(=O)N1CCOCC1 | 112 |  | 0.146 µM [falling, full curve, poor fit]
39 | c1ccc(C(c2ccccc2)N2CCN(c3nc4ccccc4n4cnnc34)CC2)cc1 | -38.2 | 14.6 µM [falling, partial curve, poor fit] | 6.51 µM [falling, partial curve]
40 | O=c1oc2ccccc2c2c1SC(C(F)(F)F)C2 (stereo not drawn) | 19.3 |  | 1.3 µM [rising, full curve]
41 | COc1ccc(/C=N/NC(=O)c2csc(-n3nc(C)cc3C(F)(F)F)n2)cc1 |  | 2.06 µM [rising, partial curve] | 0.461 µM [rising, single point]
42 | Cn1ncc(Br)c1NC(=O)CSc1ccc(Cl)cc1 | 3.67 |  | 29.1 µM [falling, single point]
43 | Cc1ccc(C(=O)Nc2ccccn2)cc1S(=O)(=O)N1CCOCC1 | 7.46 |  | 
44 | Cc1cc(C)c(S(=O)(=O)N2CCOC2CNC(=O)C(=O)NCCCN2CCCC2=O)c(C)c1 (stereo not drawn) | -9.49 |  | 1.64 µM [falling, partial curve]

Row | SMILES | cell number change [%] | AC50 [1] | AC50 [2]
45 | O=C(C1CCN(S(=O)(=O)c2ccccc2)CC1)N1CCc2ccccc21 | 9.19 |  | 
46 | Nc1c(C(=O)Nc2cccc(F)c2)nnn1-c1ccc2c(c1)OCCO2 | 17.2 |  | 
47 | Nc1cccn2c(-c3ccc(Cl)c(Cl)c3)cnc12 | 64.7 |  | 
48 | COCc1ccc(C(=O)NC2CC(C)(C)Cc3c2cnn3-c2ccc(C)cc2)o1 (stereo not drawn) |  |  | 6.51 µM [falling, single point]
49 | O=[N+]([O-])c1ccc(C2OCCO2)cc1CS(=O)(=O)c1ccccc1 | -40.6 | 7.31 µM [falling, partial curve] | 16.4 µM [falling, single point]
50 | COC(=O)c1ccc(/C=N/Nc2nc3ccccc3[nH]2)cc1 | 75.9 | 10.3 µM [rising, partial curve] | 
51 | CCCCOC(=O)CCc1n[nH]c(=O)[nH]c1=O | -21.7 |  | 0.731 µM [falling, full curve]
52 | COc1ccc(O)c(C(=O)c2cnc3nc4ccccc4n3c2)c1 | -20 |  | 29.1 µM [falling, single point]
53 | CC1CCN(S(=O)(=O)c2cn(C)c(=O)n(C)c2=O)CC1 | -28.4 |  | 23.1 µM [falling, partial curve, poor fit]
54 | COc1ccccc1-c1cn[nH]c1-c1ccc(OCc2ccccc2F)cc1O | -69.2 | 20.6 µM [falling, single point] | 29.1 µM [falling, single point]
55 | CCOC(=O)C1CCN(C(=O)C2CCN(S(=O)(=O)c3c(C)noc3C)CC2)CC1 | -7.36 |  | 
56 | O=C(Nc1ccccc1Cc1ccccc1)c1ccncc1 | 14.1 |  | 29.1 µM [falling, single point]
57 | CCOc1ccc(OCc2ccc(C(=O)N(CC)CC)cc2)cc1 | -11.9 |  | 
58 | CCCSC1=C(C#N)C(c2cccs2)CC(=O)N1 (stereo not drawn) | -6.97 | 0.00651 µM [falling, full curve, poor fit] | 
59 | O=C(NCc1cccnc1)Nc1cccc(F)c1 | 3.19 |  | 
60 | Cc1csc(NC(=O)CSc2nnc(C)c(=O)n2N)n1 | 4.92 |  | 
61 | COc1ccc(C)cc1NC(=O)C1CCN(C(=O)c2ccco2)CC1 | 23.7 |  | 
62 | NCCCCCc1cn(CC(=O)NCCCCCCCCCCC(=O)N2CCNCC2)nn1 | 4.15 |  | 
63 | CN1CCN(C(=O)CC2(CC(=O)O)CCCC2)CC1 | -10.6 |  | 
64 | Cc1cccn2c(=O)nc(SCC(=O)NCc3ccccc3Cl)nc12 |  |  | 1.3 µM [rising, partial curve]

At a glance, two of the compounds above:
Row | SMILES | cell number change [%] | AC50 [1] | AC50 [2]
63 | CN1CCN(C(=O)CC2(CC(=O)O)CCCC2)CC1 | -10.6 |  | 
64 | Cc1cccn2c(=O)nc(SCC(=O)NCc3ccccc3Cl)nc12 |  |  | 1.3 µM [rising, partial curve]
